# According to PubChem BioAssay AID504444 (National Center for Advancing Translational Sciences (NCATS), 2011):
# Hit rate of the full screen: of about 360,000 compounds, about 7,500 (2.1%) were called active. This list was built around the results that the source calls inconclusive (neither active nor inactive); the mix of calls is not that of the screen. The call rests on the fitted dose curve; in most records, active means well fitted inhibition curve with a large enough effect; inconclusive means small, poorly fitted or top-dose-only effect, or effect the other way; inactive means flat fitted curve, though single readings scatter. Potencies beside an inconclusive call are fits to weak or partial responses and may not hold up.
# Assay: Nrf2 qHTS screen for inhibitors; further: nearly all actives have a fitted effect of over 60% in size
# Conditions: A549 ARE-Fluc reporter, luciferase luminescence, 18-24 h; series mostly up to 46 µM
# Summary of the method: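 Nrf2 function is reported as luminescence of an ARE-controlled luciferase in A549 cells. Compounds were tested at several concentrations, and a CellTiter-Fluor read on the same wells flagged cytotoxicity.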
# Potency means the concentration at half of the fitted maximal effect.
row,Compound,Potency
1,CCCCSc1nc(-c2ccc(OC)cc2)ccc1C#N,inactive
2,CC(C)(c1ccccc1)c1ccc(OCCCNCCO)cc1,inactive
3,COc1ccc2cc(C[C@@H]3CC[C@@H](CO)O3)ccc2c1,"inconclusive: 8.2 µM [activator, partial curve, poor fit]"
4,C=CCn1c(O)c(N=NC(=S)Nc2cccc(OC)c2)c2ccccc21,"inconclusive: 11.6 µM [falling, partial curve]"
5,O=C(c1cnc2ccccn2c1=O)N1CCc2ccccc21,"inconclusive: 6.51 µM [falling, single point]"
6,CC1=NN(C(N)=S)C(=O)C1N=Nc1ccc(Cl)cc1 (centres undefined),"inconclusive: 1.16 µM [activator, full curve]"
7,CCCCC(=O)Nc1nc(C)c(-c2csc(Nc3ccc(Cl)cc3)n2)s1,"inconclusive: 23.1 µM [falling, single point]"
8,COc1cccc(-c2nc(CS(=O)(=O)CC(=O)N3CCc4ccccc4C3)c(C)o2)c1,"inconclusive: 29.1 µM [falling, partial curve, poor fit]"
9,COc1cc(C(=O)Nc2sc3c(c2C#N)CCN(C(C)=O)C3)cc(OC)c1OC,"inconclusive: 0.58 µM [falling, full curve, poor fit]"
10,O=C(NCc1cccc(Cl)c1)c1ccc(CS(=O)Cc2ccc(Cl)cc2)o1 (centres undefined),inactive
11,CCC1CCCCN1C(=O)CCCOc1ccccc1 (centres undefined),"inconclusive: 3.66 µM [activator, full curve, poor fit]"
12,COc1ccc2nc3oc(C(=O)N4CCN(c5cc(C)ccc5C)CC4)cc3cc2c1,"inconclusive: 25.9 µM [activator, single point]"
13,CCC(=O)N1CCc2cc(S(=O)(=O)CCC(=O)Nc3ccc(OC(F)(F)F)cc3)ccc21,"inconclusive: 18.4 µM [falling, partial curve, poor fit]"
14,O=C(Nc1c2c(nc3ccccc13)CCCC2)c1ccccc1F,"inconclusive: 8.2 µM [activator, partial curve]"
15,COc1ccc(CC(=O)Nc2sc3c(c2C(=O)Nc2cccc(Cl)c2)CCCCC3)cc1,inactive
16,CCc1ccc(-c2cc(N)n(-c3ccccc3)n2)cc1,"inconclusive: 2.59 µM [activator, full curve]"
17,CC1CCCN(C(=O)C2CCN(c3nc(-c4ccccc4)nc4c3CCC4)CC2)C1 (centres undefined),"inconclusive: 20.6 µM [falling, single point]"
18,CCn1cc(Br)c(C(=O)Nc2ccc(C(=O)OC(C)C)cc2)n1,"inconclusive: 23.1 µM [falling, partial curve]"
19,CC(C)CC(CSc1ccc(Br)cc1)N1CCN(CCc2ccccc2)CCC1=O (centres undefined),inactive
20,COc1cc(C2Nc3cccc4cccc(c34)N2)ccc1OC(C)=O,inactive
21,C/C=C/C(=O)[C@@H](C)[C@@H](/C=C/C[Si](C)(C)C)c1ccccc1,inactive
22,CCOc1cc(CN2CCC(CO)(Cc3cccc(C(F)(F)F)c3)CC2)ccc1OC,inactive
23,C[n+]1ccc(/C=C/c2c[nH]c3ccc(F)cc23)cc1,active: 1.16 µM

row,Compound,Potency
1,CCOc1ccccc1NC(=O)c1ccccc1-c1ccccc1,"inconclusive: 0.517 µM [falling, single point]"
2,O=C(O)C1=C(C2CCCCC2)C(=O)c2ccccc21,inactive
3,CCOC(=O)c1ccc(-n2c(CCC(=O)O)ccc2-c2ccc(Br)cc2)cc1,inactive
4,CSc1ccccc1NC(=O)c1noc(C)c1[N+](=O)[O-],"inconclusive: 29.1 µM [activator, single point]"
5,O=C(NCc1cccs1)c1ccc(Cn2c(SCc3ccccc3)nc3cccnc32)cc1,active: 25.9 µM
6,O=C(Nc1c(C(=O)N2CCN(c3ccccc3)CC2)oc2ccccc12)c1ccc(Br)o1,"inconclusive: 29.1 µM [falling, single point]"
7,Cc1cc(Cl)ccc1OCC(=O)Nc1c(Cl)ccc2nsnc12,inactive
8,O=C(COC(=O)CNC(=O)c1ccccc1)NCc1ccc2c(c1)OCO2,inactive
9,COc1ccc(C2Nc3ccccc3C(=O)N2Cc2ccccc2)cc1Cn1nnc2ccccc21 (centres undefined),"inconclusive: 1.46 µM [falling, partial curve, poor fit]"
10,Cc1ccc(NC(=S)N/N=C2/CCCCc3ccccc32)cc1,"inconclusive: 10.3 µM [activator, partial curve, poor fit]"
11,O=C(CCC(=O)c1cccs1)NCc1ccncc1,"inconclusive: 3.66 µM [activator, partial curve, poor fit]"
12,COc1cccc(CNS(=O)(=O)c2ccc3c(c2)CCN3C(=O)C2CCC2)c1,inactive
13,CC1(C)NC(=O)N(CCOc2cccc(Oc3ccccc3)c2)C1=O,"inconclusive: 29.1 µM [falling, single point]"
14,CCC(C)NC(=S)Nc1ccccc1 (centres undefined),inactive
15,O=C(Nc1ccc(F)cc1)N1CCN(c2ccccc2F)CC1,"inconclusive: 3.26 µM [falling, partial curve, poor fit]"
16,S=c1[nH]nc(-c2cccnc2)n1/N=C/C(Cl)=C\c1ccccc1,"inconclusive: 16.4 µM [activator, single point]"
17,COc1ccc(NC(=O)/C(N=Nc2cc(S(=O)(=O)Nc3ccc(OC)cc3)ccc2OC)=C(\C)O)cc1,"inconclusive: 7.31 µM [falling, partial curve, poor fit]"
18,Cc1cc(NC(=O)CSc2nc(C3CC3)nc3sc(C)c(C)c23)no1,"inconclusive: 18.4 µM [falling, partial curve, poor fit]"
19,O=C(NCc1nc2ccccc2[nH]1)C1=C[C@H](c2ccccc2)C[C@H](OCc2ccc(CO)cc2)O1,inactive
20,Cc1ccc(S(=O)(=O)N2CCN(C(=O)CN3C(=O)NC(C)(c4ccc5ccccc5c4)C3=O)CC2)cc1 (centres undefined),"inconclusive: 23.1 µM [falling, partial curve]"
21,COc1ccc(C(=O)Nc2ccc3oc(-c4cccnc4)nc3c2)cc1,"inconclusive: 20.6 µM [falling, single point]"
22,CCOC(=O)C1(C)/C(=N/Nc2cccc(Cl)c2)C(=O)C(=O)N1c1ccccc1 (centres undefined),inactive
23,O=C(COC(=O)/C=C/c1ccccc1Cl)NC(=O)NCc1ccccc1,inactive

row,Compound,Potency
1,C=CCn1c(SCC(=O)c2[nH]c(C)c(C(=O)OCC)c2C)nc2scc(-c3ccc(OC)c(OC)c3)c2c1=O,"inconclusive: 14.6 µM [falling, partial curve, poor fit]"
2,COc1ccc(C2C=C(c3ccccc3)Nc3nc(NC(=O)c4cccc([N+](=O)[O-])c4)nn32)cc1 (centres undefined),inactive
3,C=CCNC(=O)c1ccccc1NC(=O)C1CCN(S(=O)(=O)c2ccc(SC)cc2)CC1,"inconclusive: 14.6 µM [falling, partial curve]"
4,COc1cc(OC)cc(C(=O)NC(=S)NNC(=O)[C@H]2C[C@@H]2c2ccccc2)c1,"inconclusive: 29.1 µM [falling, single point]"
5,O=C(O)c1ccc(N/N=C/c2cc3cc4c(cc3nc2Cl)OCCO4)cc1,"inconclusive: 11.6 µM [falling, single point]"
6,CC(=O)c1cccc(NC(=S)NC(=O)c2cncc(Br)c2)c1,"inconclusive: 25.9 µM [activator, partial curve, poor fit]"
7,O=C(COc1ccccc1)N1CCN(c2nnc(-c3ccccc3)c3ccccc23)CC1,active: 20.6 µM
8,O=C1NN(c2ccc(Cl)cc2)C(=O)/C1=C\c1ccc(-c2cccc(C(=O)O)c2)o1,"inconclusive: 4.61 µM [activator, full curve]"
9,CCCc1nnc(NC(=O)c2c(O)c3cccc4c3n(c2=O)CC4)s1,inactive
10,CCOC(CCNC(=O)c1cn(CC(C)C)c(=O)c2c1c1ccccc1n2C)OCC,inactive
11,CCC(C)Nc1nc(OC)nc(N(C)C#N)n1 (centres undefined),"inconclusive: 23.1 µM [activator, partial curve, poor fit]"
12,COc1cc2c(c(OC)c1OC)-c1ccc(N(C)CC(OC)OC)c(=O)cc1[C@@H](NC(C)=O)CC2,"inconclusive: 7.31 µM [activator, partial curve]"
13,O=C(CSc1nnc(CNc2ccc(F)cc2)o1)N1c2ccccc2Sc2ccccc21,"inconclusive: 18.4 µM [falling, single point]"
14,CCCCN(CCCC)C(=O)C1CC=CCC1C(=O)O (centres undefined),"inconclusive: 8.2 µM [falling, partial curve]"
15,COc1ccc(Cc2nc3ccc(C(=O)NCCc4ccncc4)cc3o2)cc1OC,inactive
16,CC(C)(C)OC(=O)NCc1ccc(CNC(=O)c2nc[nH]c2C(=O)N2CCN(c3ccccc3)CC2)cc1,"inconclusive: 20.6 µM [falling, single point]"
17,COc1ccccc1C1CCN(Cc2ccc(Cl)c(Cl)c2)CC1,inactive
18,CC1CCCN(C(=O)COC(=O)c2n[nH]c3ccccc23)C1 (centres undefined),"inconclusive: 4.61 µM [activator, full curve]"
19,CCOC(=O)COc1ccc(CC)cc1C(=O)c1ccn2nc(-c3ccccc3)cc2n1,inactive
20,CCn1c(CC(=O)Nc2ccccc2F)nnc1SCC(=O)Nc1nncs1,"inconclusive: 4.11 µM [falling, full curve, poor fit]"
21,COC(=O)C(Cc1c[nH]c2ccccc12)NC(=O)COc1cccc(C)c1 (centres undefined),"inconclusive: 4.61 µM [falling, partial curve, poor fit]"
22,CCN(c1cccc(C)c1)S(=O)(=O)c1ccc2c(c1)CCN2C(C)=O,"inconclusive: 29.1 µM [falling, single point]"
23,Cc1ccc(-c2n[nH]c3c2C(c2ccc(C(C)(C)C)cc2)NC3=O)cc1 (centres undefined),"inconclusive: 0.092 µM [activator, full curve, poor fit]"

# Of the compounds above, these have an aryl methoxy group:
row,Compound,Potency
1,CCCCSc1nc(-c2ccc(OC)cc2)ccc1C#N,inactive
3,COc1ccc2cc(C[C@@H]3CC[C@@H](CO)O3)ccc2c1,"inconclusive: 8.2 µM [activator, partial curve, poor fit]"
4,C=CCn1c(O)c(N=NC(=S)Nc2cccc(OC)c2)c2ccccc21,"inconclusive: 11.6 µM [falling, partial curve]"
8,COc1cccc(-c2nc(CS(=O)(=O)CC(=O)N3CCc4ccccc4C3)c(C)o2)c1,"inconclusive: 29.1 µM [falling, partial curve, poor fit]"
9,COc1cc(C(=O)Nc2sc3c(c2C#N)CCN(C(C)=O)C3)cc(OC)c1OC,"inconclusive: 0.58 µM [falling, full curve, poor fit]"
12,COc1ccc2nc3oc(C(=O)N4CCN(c5cc(C)ccc5C)CC4)cc3cc2c1,"inconclusive: 25.9 µM [activator, single point]"
15,COc1ccc(CC(=O)Nc2sc3c(c2C(=O)Nc2cccc(Cl)c2)CCCCC3)cc1,inactive
20,COc1cc(C2Nc3cccc4cccc(c34)N2)ccc1OC(C)=O,inactive
22,CCOc1cc(CN2CCC(CO)(Cc3cccc(C(F)(F)F)c3)CC2)ccc1OC,inactive
9,COc1ccc(C2Nc3ccccc3C(=O)N2Cc2ccccc2)cc1Cn1nnc2ccccc21 (centres undefined),"inconclusive: 1.46 µM [falling, partial curve, poor fit]"
12,COc1cccc(CNS(=O)(=O)c2ccc3c(c2)CCN3C(=O)C2CCC2)c1,inactive
17,COc1ccc(NC(=O)/C(N=Nc2cc(S(=O)(=O)Nc3ccc(OC)cc3)ccc2OC)=C(\C)O)cc1,"inconclusive: 7.31 µM [falling, partial curve, poor fit]"
21,COc1ccc(C(=O)Nc2ccc3oc(-c4cccnc4)nc3c2)cc1,"inconclusive: 20.6 µM [falling, single point]"
1,C=CCn1c(SCC(=O)c2[nH]c(C)c(C(=O)OCC)c2C)nc2scc(-c3ccc(OC)c(OC)c3)c2c1=O,"inconclusive: 14.6 µM [falling, partial curve, poor fit]"
2,COc1ccc(C2C=C(c3ccccc3)Nc3nc(NC(=O)c4cccc([N+](=O)[O-])c4)nn32)cc1 (centres undefined),inactive
4,COc1cc(OC)cc(C(=O)NC(=S)NNC(=O)[C@H]2C[C@@H]2c2ccccc2)c1,"inconclusive: 29.1 µM [falling, single point]"
11,CCC(C)Nc1nc(OC)nc(N(C)C#N)n1 (centres undefined),"inconclusive: 23.1 µM [activator, partial curve, poor fit]"
12,COc1cc2c(c(OC)c1OC)-c1ccc(N(C)CC(OC)OC)c(=O)cc1[C@@H](NC(C)=O)CC2,"inconclusive: 7.31 µM [activator, partial curve]"
15,COc1ccc(Cc2nc3ccc(C(=O)NCCc4ccncc4)cc3o2)cc1OC,inactive
17,COc1ccccc1C1CCN(Cc2ccc(Cl)c(Cl)c2)CC1,inactive
